Measured values reported in patent US7413853B2, “Modulation of metabolism of steroids and xenobiotics” (The Salk Institute for Biological Studies, priority 2001, dated 2008).

Test system: SXR
Description: To characterize its response properties, a large variety of steroids, including intermediate and major products of known steroid biosynthetic pathways were tested.

With `COC(=O)C1=C(C)NC(C)=C(C(=O)OC)C1c1ccccc1[N+](=O)[O-]` [nifedipine] the “activation of SXR by compounds known to induce CYP3A4” value was “most potent activators”.
